# Test results published in publication PMC5984089, “FBXW7 regulates DISC1 stability via the ubiquitin-proteosome system” (Molecular Psychiatry, 2017).
# Sequences of proteins named here, by UniProt entry; tags and fusion partners are left off.
# UniProt Q969H0: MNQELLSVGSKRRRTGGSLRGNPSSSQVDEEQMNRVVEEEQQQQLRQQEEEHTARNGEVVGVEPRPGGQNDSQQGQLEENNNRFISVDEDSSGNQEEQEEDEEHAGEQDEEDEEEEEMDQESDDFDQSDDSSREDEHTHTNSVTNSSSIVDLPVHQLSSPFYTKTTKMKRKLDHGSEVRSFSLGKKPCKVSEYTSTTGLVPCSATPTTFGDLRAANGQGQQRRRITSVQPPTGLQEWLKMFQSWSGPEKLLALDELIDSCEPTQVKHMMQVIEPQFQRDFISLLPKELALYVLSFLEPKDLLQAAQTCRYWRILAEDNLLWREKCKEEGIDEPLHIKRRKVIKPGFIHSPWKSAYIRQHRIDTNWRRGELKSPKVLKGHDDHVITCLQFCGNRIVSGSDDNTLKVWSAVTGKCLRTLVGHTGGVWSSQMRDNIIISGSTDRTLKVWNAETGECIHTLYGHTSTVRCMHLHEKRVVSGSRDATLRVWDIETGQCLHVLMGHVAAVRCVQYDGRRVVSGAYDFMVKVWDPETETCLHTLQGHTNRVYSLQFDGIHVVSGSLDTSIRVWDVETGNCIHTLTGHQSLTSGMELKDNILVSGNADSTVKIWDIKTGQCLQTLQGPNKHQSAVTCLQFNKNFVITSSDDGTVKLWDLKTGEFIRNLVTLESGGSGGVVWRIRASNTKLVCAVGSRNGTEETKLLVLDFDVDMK
# Results are given in words; binding and its absence hold for the method and conditions named. Binding seen in cells or lysates may run through a third protein. Some results given as binding are weak or reduced against the parent protein; the word gives no strength. Tags and fused reporters may be left off the sequences shown.
# T1: FLAG-DISC1 (UniProt Q9NRI5)
# T1 sequence: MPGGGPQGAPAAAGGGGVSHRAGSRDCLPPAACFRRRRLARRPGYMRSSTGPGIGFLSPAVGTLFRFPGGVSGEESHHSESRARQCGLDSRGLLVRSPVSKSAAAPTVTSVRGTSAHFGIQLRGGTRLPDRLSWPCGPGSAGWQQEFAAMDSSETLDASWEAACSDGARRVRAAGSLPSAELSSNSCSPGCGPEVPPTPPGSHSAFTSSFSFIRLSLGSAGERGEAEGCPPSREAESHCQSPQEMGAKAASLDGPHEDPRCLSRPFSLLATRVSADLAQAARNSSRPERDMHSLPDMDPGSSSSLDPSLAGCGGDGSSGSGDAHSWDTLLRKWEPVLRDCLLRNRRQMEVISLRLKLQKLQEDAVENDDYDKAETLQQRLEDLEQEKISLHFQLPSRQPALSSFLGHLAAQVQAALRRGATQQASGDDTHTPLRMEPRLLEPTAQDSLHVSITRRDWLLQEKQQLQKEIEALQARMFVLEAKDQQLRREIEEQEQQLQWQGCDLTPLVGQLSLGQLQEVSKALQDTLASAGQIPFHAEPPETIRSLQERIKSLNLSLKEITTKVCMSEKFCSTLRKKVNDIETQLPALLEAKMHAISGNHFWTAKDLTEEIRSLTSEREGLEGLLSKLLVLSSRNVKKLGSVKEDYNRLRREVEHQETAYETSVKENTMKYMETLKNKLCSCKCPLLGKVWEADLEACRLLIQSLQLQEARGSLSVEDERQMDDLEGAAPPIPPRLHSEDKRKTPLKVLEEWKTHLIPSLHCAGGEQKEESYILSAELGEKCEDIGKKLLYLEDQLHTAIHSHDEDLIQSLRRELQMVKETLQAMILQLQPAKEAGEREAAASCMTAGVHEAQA
# How the values were obtained:
# FLAG-DISC1 = target: T1, FLAG-DISC1; test: co-IP; HEK293 cells transfected; FLAG immunoprecipitated from cell lysates on tagged agarose, overnight at 4 °C; western blot
# FLAG-tagged FBXW7 = FLAG-tagged FBXW7 (UniProt Q969H0); test: as above
Molecule,binding (FLAG-DISC1),binding (FLAG-tagged FBXW7)
endogenous FBXW7 (from UniProt Q969H0 1-707),binds,–
"GFP-DISC1 (protein, UniProt Q9NRI5 1-854) MPGGGPQGAPAAAGGGGVSHRAGSRDCLPPAACFRRRRLARRPGYMRSSTGPGIGFLSPAVGTLFRFPGGVSGEESHHSESRARQCGLDSRGLLVRSPVSKSAAAPTVTSVRGTSAHFGIQLRGGTRLPDRLSWPCGPGSAGWQQEFAAMDSSETLDASWEAACSDGARRVRAAGSLPSAELSSNSCSPGCGPEVPPTPPGSHSAFTSSFSFIRLSLGSAGERGEAEGCPPSREAESHCQSPQEMGAKAASLDGPHEDPRCLSRPFSLLATRVSADLAQAARNSSRPERDMHSLPDMDPGSSSSLDPSLAGCGGDGSSGSGDAHSWDTLLRKWEPVLRDCLLRNRRQMEVISLRLKLQKLQEDAVENDDYDKAETLQQRLEDLEQEKISLHFQLPSRQPALSSFLGHLAAQVQAALRRGATQQASGDDTHTPLRMEPRLLEPTAQDSLHVSITRRDWLLQEKQQLQKEIEALQARMFVLEAKDQQLRREIEEQEQQLQWQGCDLTPLVGQLSLGQLQEVSKALQDTLASAGQIPFHAEPPETIRSLQERIKSLNLSLKEITTKVCMSEKFCSTLRKKVNDIETQLPALLEAKMHAISGNHFWTAKDLTEEIRSLTSEREGLEGLLSKLLVLSSRNVKKLGSVKEDYNRLRREVEHQETAYETSVKENTMKYMETLKNKLCSCKCPLLGKVWEADLEACRLLIQSLQLQEARGSLSVEDERQMDDLEGAAPPIPPRLHSEDKRKTPLKVLEEWKTHLIPSLHCAGGEQKEESYILSAELGEKCEDIGKKLLYLEDQLHTAIHSHDEDLIQSLRRELQMVKETLQAMILQLQPAKEAGEREAAASCMTAGVHEAQA",–,binds
"V5-DISC1 (protein, UniProt Q9NRI5 1-854) MPGGGPQGAPAAAGGGGVSHRAGSRDCLPPAACFRRRRLARRPGYMRSSTGPGIGFLSPAVGTLFRFPGGVSGEESHHSESRARQCGLDSRGLLVRSPVSKSAAAPTVTSVRGTSAHFGIQLRGGTRLPDRLSWPCGPGSAGWQQEFAAMDSSETLDASWEAACSDGARRVRAAGSLPSAELSSNSCSPGCGPEVPPTPPGSHSAFTSSFSFIRLSLGSAGERGEAEGCPPSREAESHCQSPQEMGAKAASLDGPHEDPRCLSRPFSLLATRVSADLAQAARNSSRPERDMHSLPDMDPGSSSSLDPSLAGCGGDGSSGSGDAHSWDTLLRKWEPVLRDCLLRNRRQMEVISLRLKLQKLQEDAVENDDYDKAETLQQRLEDLEQEKISLHFQLPSRQPALSSFLGHLAAQVQAALRRGATQQASGDDTHTPLRMEPRLLEPTAQDSLHVSITRRDWLLQEKQQLQKEIEALQARMFVLEAKDQQLRREIEEQEQQLQWQGCDLTPLVGQLSLGQLQEVSKALQDTLASAGQIPFHAEPPETIRSLQERIKSLNLSLKEITTKVCMSEKFCSTLRKKVNDIETQLPALLEAKMHAISGNHFWTAKDLTEEIRSLTSEREGLEGLLSKLLVLSSRNVKKLGSVKEDYNRLRREVEHQETAYETSVKENTMKYMETLKNKLCSCKCPLLGKVWEADLEACRLLIQSLQLQEARGSLSVEDERQMDDLEGAAPPIPPRLHSEDKRKTPLKVLEEWKTHLIPSLHCAGGEQKEESYILSAELGEKCEDIGKKLLYLEDQLHTAIHSHDEDLIQSLRRELQMVKETLQAMILQLQPAKEAGEREAAASCMTAGVHEAQA",–,binds
